These are yes or no findings as the source states them, for the method shown. Some binding calls cover weakened binding; strength is not graded here.

In the assay the target is T1, human CaMKII-α hub domain (human), Q9UQM7.
T1 chain: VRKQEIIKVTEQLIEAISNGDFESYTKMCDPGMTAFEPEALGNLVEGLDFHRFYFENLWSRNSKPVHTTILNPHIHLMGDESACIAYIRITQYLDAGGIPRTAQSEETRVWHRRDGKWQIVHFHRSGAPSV
The assay can be described thus: native MS; hub 120 µM (subunits) mixed with 1 µM to 1 mM unphosphorylated peptide, ~400 mM ammonium acetate, incubated 5 min at room temperature; nanoelectrospray, sample cone voltage 50 V, source 80°C; both purified. The note with it: remark: other sources report otherwise.

Turning to LKEFNAERKLEGAILTTMLA [Peptide C], the binding entry is recorded as “binds”.

The values are drawn from publication PMC7538161.
